# Measured values as given in the supplement of paper PMC10849652.
# By UniProt entry, the sequences of proteins in these tests, tags left out. Where a name states a change or a piece, a line headed by the entry shows the natural chain unless it says otherwise.
# UniProt Q96HY6: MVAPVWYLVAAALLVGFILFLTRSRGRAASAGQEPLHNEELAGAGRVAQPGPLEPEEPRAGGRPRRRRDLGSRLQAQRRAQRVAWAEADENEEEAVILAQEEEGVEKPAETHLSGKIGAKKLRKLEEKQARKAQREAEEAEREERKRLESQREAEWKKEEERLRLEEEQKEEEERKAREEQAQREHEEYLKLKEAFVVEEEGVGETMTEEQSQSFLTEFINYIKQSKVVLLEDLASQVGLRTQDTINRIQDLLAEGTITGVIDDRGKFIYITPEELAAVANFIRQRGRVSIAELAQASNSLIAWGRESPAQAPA
# UniProt Q7Z4W1: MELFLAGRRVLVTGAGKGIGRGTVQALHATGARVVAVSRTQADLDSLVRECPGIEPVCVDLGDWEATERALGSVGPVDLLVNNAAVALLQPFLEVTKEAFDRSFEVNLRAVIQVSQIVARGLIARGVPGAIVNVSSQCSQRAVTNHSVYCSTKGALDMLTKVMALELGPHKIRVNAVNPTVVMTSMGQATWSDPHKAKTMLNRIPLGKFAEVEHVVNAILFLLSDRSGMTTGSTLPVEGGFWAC
# UniProt Q9UHI6: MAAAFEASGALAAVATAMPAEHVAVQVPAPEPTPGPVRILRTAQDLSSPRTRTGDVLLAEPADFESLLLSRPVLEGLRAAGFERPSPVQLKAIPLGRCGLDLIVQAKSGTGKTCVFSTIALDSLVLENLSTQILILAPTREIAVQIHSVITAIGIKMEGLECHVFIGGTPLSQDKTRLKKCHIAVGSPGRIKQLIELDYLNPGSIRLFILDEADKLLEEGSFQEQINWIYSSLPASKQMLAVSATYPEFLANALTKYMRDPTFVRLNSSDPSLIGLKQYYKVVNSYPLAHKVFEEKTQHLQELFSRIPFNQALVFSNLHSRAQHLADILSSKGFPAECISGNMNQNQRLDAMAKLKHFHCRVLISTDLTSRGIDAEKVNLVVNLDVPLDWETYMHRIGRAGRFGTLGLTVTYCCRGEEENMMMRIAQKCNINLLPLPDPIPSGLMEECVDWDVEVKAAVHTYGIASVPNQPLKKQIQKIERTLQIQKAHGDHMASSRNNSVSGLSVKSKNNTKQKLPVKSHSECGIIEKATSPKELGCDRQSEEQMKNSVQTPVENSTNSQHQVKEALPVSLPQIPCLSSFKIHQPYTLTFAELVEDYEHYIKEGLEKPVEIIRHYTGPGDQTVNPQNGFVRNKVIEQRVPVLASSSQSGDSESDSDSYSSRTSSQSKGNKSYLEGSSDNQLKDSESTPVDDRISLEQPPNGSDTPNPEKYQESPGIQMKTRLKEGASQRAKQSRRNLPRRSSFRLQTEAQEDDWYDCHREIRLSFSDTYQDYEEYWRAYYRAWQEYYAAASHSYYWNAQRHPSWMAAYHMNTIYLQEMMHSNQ
# UniProt Q9H4E7, whole entry, looked up: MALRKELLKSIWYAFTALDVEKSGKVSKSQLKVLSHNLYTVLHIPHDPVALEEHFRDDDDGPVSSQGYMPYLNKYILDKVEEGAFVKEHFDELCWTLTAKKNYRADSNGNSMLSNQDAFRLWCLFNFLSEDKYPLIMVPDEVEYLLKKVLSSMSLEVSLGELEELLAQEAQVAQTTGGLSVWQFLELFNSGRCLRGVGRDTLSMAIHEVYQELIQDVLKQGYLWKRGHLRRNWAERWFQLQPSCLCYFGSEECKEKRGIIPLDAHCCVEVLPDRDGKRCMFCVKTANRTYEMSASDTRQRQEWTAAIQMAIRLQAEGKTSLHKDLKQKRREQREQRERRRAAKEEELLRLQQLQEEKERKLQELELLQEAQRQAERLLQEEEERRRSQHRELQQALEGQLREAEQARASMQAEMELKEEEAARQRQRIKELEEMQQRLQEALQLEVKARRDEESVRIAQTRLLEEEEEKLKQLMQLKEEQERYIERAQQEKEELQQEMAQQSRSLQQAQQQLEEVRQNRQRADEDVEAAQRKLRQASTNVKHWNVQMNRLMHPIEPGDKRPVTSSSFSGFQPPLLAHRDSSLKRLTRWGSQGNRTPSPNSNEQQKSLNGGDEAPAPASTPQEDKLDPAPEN
# UniProt Q5VZ89: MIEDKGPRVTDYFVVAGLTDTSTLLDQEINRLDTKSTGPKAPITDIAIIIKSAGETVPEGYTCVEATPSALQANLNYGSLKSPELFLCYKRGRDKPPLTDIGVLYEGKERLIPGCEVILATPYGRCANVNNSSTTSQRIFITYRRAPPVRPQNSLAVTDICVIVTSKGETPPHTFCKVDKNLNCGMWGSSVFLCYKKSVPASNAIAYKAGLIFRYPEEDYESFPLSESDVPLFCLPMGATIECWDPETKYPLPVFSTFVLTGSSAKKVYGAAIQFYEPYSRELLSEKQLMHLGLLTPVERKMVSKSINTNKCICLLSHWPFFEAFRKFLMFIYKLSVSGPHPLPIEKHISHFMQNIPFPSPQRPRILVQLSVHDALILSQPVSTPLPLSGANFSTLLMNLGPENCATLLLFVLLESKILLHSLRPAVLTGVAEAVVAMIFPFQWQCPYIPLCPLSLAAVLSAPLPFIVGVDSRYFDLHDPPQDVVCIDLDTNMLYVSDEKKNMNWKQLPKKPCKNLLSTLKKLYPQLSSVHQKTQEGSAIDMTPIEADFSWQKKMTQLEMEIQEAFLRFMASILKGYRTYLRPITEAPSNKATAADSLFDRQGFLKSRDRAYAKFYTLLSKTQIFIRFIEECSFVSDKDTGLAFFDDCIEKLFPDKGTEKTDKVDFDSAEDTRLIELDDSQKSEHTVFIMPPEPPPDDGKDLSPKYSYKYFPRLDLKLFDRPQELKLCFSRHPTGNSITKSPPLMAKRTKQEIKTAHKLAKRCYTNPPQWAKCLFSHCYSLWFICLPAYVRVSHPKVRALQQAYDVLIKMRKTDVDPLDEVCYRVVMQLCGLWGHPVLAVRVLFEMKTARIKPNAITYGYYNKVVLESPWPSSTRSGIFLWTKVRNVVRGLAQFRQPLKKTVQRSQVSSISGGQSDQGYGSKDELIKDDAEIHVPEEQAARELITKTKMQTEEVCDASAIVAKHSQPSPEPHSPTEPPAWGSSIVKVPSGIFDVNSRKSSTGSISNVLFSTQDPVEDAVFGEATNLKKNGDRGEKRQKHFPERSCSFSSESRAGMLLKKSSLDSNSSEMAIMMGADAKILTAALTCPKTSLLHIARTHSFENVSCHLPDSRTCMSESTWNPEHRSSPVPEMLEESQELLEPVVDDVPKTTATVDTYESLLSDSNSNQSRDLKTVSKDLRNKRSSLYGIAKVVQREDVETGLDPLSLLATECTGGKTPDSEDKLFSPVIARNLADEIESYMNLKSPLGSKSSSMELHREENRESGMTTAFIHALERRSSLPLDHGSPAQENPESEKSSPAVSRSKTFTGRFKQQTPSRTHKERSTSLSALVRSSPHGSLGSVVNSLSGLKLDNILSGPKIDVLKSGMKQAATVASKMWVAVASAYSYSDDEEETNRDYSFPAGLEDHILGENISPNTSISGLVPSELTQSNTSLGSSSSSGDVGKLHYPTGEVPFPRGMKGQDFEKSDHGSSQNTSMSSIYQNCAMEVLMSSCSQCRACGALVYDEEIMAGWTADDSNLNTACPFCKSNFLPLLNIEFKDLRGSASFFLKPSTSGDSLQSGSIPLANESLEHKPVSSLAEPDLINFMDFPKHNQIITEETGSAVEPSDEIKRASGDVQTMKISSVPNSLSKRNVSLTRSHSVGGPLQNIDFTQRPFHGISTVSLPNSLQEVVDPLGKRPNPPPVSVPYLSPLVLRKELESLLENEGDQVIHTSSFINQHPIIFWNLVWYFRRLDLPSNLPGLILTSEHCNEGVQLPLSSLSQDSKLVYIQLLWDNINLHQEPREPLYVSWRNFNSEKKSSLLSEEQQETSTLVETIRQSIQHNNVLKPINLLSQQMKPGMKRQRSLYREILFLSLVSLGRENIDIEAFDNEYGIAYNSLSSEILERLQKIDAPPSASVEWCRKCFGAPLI
# UniProt Q9H1C7: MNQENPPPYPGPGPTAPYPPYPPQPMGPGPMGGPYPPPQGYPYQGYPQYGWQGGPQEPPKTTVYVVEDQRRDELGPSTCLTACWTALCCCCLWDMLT
# UniProt P35659: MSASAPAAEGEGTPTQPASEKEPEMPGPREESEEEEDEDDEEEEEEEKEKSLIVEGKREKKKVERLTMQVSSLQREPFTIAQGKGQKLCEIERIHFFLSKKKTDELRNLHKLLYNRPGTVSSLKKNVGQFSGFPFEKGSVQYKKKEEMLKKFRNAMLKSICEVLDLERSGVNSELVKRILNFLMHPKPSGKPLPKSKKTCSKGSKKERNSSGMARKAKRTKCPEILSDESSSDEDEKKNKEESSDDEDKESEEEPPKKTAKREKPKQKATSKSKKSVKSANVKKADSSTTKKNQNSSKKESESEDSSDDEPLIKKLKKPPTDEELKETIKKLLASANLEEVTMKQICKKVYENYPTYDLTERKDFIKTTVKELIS
# UniProt Q8NEL9: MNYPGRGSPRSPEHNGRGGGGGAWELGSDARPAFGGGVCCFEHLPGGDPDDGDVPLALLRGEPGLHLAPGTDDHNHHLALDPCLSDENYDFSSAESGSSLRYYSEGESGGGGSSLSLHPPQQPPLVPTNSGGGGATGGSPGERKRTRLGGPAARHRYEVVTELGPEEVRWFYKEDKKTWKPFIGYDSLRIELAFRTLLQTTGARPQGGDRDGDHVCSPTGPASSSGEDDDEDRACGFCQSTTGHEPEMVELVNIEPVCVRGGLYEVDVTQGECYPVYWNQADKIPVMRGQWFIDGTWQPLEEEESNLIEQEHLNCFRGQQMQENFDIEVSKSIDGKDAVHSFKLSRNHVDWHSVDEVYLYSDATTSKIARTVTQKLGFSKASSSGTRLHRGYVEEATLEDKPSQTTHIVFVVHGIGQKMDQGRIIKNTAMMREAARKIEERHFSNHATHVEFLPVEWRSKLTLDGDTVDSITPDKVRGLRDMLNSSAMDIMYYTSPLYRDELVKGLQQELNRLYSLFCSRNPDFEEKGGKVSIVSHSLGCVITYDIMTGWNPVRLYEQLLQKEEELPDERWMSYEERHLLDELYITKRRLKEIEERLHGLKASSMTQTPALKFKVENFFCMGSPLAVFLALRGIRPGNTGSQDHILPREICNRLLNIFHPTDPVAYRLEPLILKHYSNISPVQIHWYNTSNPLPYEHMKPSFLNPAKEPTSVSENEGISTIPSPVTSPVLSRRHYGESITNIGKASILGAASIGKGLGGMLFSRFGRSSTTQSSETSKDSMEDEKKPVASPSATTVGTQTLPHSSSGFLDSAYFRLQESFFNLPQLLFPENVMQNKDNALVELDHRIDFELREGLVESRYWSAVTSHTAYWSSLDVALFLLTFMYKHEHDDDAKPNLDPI
# UniProt Q8N465: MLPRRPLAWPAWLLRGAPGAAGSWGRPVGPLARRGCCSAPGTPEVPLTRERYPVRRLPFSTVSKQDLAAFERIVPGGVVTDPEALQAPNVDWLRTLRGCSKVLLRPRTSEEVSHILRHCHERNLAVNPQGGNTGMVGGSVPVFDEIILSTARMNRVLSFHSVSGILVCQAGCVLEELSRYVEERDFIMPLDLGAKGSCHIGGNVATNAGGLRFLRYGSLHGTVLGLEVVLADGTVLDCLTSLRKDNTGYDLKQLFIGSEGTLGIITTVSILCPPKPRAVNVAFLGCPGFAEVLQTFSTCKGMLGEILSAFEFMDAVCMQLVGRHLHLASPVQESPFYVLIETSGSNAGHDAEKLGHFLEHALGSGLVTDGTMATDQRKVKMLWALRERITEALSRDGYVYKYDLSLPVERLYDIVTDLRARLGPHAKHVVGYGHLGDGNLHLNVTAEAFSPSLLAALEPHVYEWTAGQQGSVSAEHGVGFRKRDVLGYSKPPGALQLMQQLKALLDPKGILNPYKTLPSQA
# UniProt Q9BUN8: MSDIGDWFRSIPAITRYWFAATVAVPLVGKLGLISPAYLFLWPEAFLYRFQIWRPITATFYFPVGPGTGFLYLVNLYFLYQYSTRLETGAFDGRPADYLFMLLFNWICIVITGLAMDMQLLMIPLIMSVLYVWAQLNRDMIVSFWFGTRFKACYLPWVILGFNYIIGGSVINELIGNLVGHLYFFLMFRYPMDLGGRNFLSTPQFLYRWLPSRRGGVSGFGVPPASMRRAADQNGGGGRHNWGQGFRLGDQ
# UniProt Q16698: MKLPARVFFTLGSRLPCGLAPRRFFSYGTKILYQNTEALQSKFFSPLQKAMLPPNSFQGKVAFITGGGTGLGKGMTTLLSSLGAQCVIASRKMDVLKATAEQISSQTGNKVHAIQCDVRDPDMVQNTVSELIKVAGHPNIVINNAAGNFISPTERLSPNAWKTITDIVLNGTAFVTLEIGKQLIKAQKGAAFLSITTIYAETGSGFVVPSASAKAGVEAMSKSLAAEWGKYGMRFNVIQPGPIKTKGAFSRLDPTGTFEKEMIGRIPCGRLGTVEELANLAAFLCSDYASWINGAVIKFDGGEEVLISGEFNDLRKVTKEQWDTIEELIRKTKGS
# UniProt Q9H773: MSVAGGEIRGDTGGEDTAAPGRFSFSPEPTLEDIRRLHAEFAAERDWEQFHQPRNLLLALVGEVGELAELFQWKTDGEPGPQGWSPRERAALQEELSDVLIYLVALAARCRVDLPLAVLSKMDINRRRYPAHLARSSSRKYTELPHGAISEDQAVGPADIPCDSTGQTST
# The list shows a part of the results.
# Compound: Cc1ccc(-n2nc(C(C)(C)C)cc2NC(=O)Nc2ccc(OCCN3CCOCC3)c3ccccc23)cc1 [doramapimod]
# Test: log2 fold change, soluble protein after heating vs DMSO (PISA); higher = thermal stabilisation; K562 lysate, 10 uM; active = over 0.2 and 3.5 SD of the protein, either way, in both replicates (recomputed)
# In short: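 A 30 min treatment with 10 μM compound was applied to crude K562 extract at 1 mg/mL protein in PBS pH 7.4 with 1 mM MgCl2. Heating for 3 min spanned 48°C-58°C, after which aliquots were pooled, adjusted to 0.5% NP-40 at 4°C and spun at 21,000xg for 90 min. TMTpro 16plex LC-MS/MS of the supernatant, with channel sums equalised, gave values recorded as log-two fold change in thermal stability against solvent controls, from duplicates.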
row,Target,log2 fold change
1,DDRGK1 (UniProt Q96HY6),inactive: 0.013
2,DCTN1 (UniProt Q14203),inactive: -0.013
3,DCTN2 (UniProt Q13561),inactive: -0.068
4,DDX21 (UniProt Q9NR30),inactive: -0.042
5,DCXR (UniProt Q7Z4W1),inactive: 0.037
6,DDX20 (UniProt Q9UHI6),inactive: 0.015
7,DEF6 (UniProt Q9H4E7),inactive: 0
8,DCTN3 (UniProt O75935),inactive: 0.032
9,DENND4C (UniProt Q5VZ89),inactive: 0.021
10,DDB1 (UniProt Q16531),inactive: 0.024
11,DFFA (UniProt O00273),inactive: -0.015
12,DCP2 (UniProt Q8IU60),inactive: 0.01
13,DDX54 isoform 2 (UniProt Q8TDD1),inactive: 0.019
14,CYSTM1 (UniProt Q9H1C7),inactive: 0.154
15,DEK (UniProt P35659),inactive: -0.035
16,DCTD isoform 2 (UniProt P32321),inactive: 0.019
17,DDHD1 (UniProt Q8NEL9),inactive: 0.031
18,CYP24A1 (UniProt Q07973),inactive: 0.006
19,D2HGDH (UniProt Q8N465),inactive: 0.045
20,DAD1 (UniProt P61803),inactive: 0.083
21,DERL1 (UniProt Q9BUN8),inactive: 0.002
22,DECR1 (UniProt Q16698),inactive: 0.011
23,DCTPP1 (UniProt Q9H773),inactive: 0.048
24,DDX24 (UniProt Q9GZR7),inactive: -0.08

# Nos. 2 through 3, quoted:
row,Target,log2 fold change
2,DCTN1 (UniProt Q14203),inactive: -0.013
3,DCTN2 (UniProt Q13561),inactive: -0.068
